PubChem BioAssay AID652272 – Drosophila RNAi Screening Center, 2013

Purpose: 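Genome-wide knock-down search for components of Hedgehog signalling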 (primary screen)
Cell system: Drosophila clone 8 (Cl8) cells
Reagents: long dsRNA against Drosophila genes
Read-out: 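Plate reader light from a firefly reporter under a ptc promoter fragment that responds to Hedgehog, with Renilla light as transfection reference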
Scale: firefly Hh reporter signal: higher = more ptc reporter light; Renilla reference signal: higher = more Renilla control light
Rule for the call: 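Called a hit if the two-replicate mean z-score lies below -2 or above +3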
Calls: active = hit: reporter lowered or raised; inactive = not a hit
The deposit covers about 21,000 reagents; this is a random part of those that have a named target and a result. In the full data, 503 (2.4%) got an active call. 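Raw plate light values, not normalised; calls rest on replicate z-scores that were not deposited; hits include reporter decreases as well as increases.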 Reagents against one gene are numbered here. A plus sign joins genes that one reagent is predicted to hit. The record does not give: the amount of reagent, the time to read-out.

gene | reagent no. | firefly Hh reporter signal, replicate 1 | firefly Hh reporter signal, replicate 2 | Renilla reference signal, replicate 1 | Renilla reference signal, replicate 2 | Call
hubl | 1 | 1.02e5 | 75626 | 2412 | 6353 | inactive
ena | 1 | 66993 | 1.35e5 | 1872 | 5152 | inactive
ena | 2 | 99459 | 83667 | 5044 | 3637 | inactive
Gprk1 | 1 | 6.41e5 | 2.28e5 | 36266 | 5575 | inactive
Gprk1 | 2 | 6.41e5 | 3.34e5 | 22688 | 7141 | inactive
GstD3 | 1 | 66618 | 73786 | 2476 | 2295 | inactive
Rai1 | 1 | 63643 | 1.65e5 | 2288 | 7107 | inactive
Sr-CII | 1 | 67499 | 41467 | 1937 | 3506 | inactive
CR11386 + CR33222 | 1 | 54243 | 2.55e5 | 2290 | 9744 | inactive
CG13676 | 1 | 49021 | 39515 | 3833 | 2064 | inactive
mGluR | 1 | 61062 | 1.67e5 | 1830 | 6871 | inactive
CG6565 | 1 | 1.83e5 | 65802 | 7056 | 2391 | inactive
CG6661 + asRNA:CR42871 | 1 | 1.16e5 | 74925 | 5035 | 3059 | inactive
HisRS | 1 | 80168 | 2.52e5 | 2581 | 9892 | inactive
Atf6 | 1 | 1.77e5 | 3.51e5 | 5083 | 16823 | inactive
Atf6 | 2 | 88928 | 48909 | 1904 | 5056 | inactive
CG14561 | 1 | 1.00e5 | 1.08e5 | 3771 | 3073 | inactive
Rlb1 | 1 | 72523 | 1.11e5 | 2138 | 3163 | inactive
CG4988 | 1 | 1.18e5 | 60304 | 2960 | 3586 | inactive
mago | 1 | 1.23e5 | 81091 | 2426 | 5450 | inactive
Rx | 1 | 1.61e5 | 3.08e5 | 4933 | 13637 | inactive
Rx | 2 | 1.18e5 | 58824 | 3291 | 5840 | inactive
Prosbeta6 | 1 | 33168 | 30730 | 2563 | 1685 | active
ND5 (retired record) | 1 | 84864 | 2.70e5 | 1043 | 11699 | inactive
CG9117 | 1 | 88115 | 58400 | 2588 | 5386 | inactive
CG8635 | 1 | 85208 | 39113 | 4065 | 1731 | inactive
CG9213 | 1 | 79200 | 50253 | 2036 | 1468 | inactive
sav | 1 | 4.99e5 | 88627 | 26341 | 2826 | inactive
sav | 2 | 4.63e5 | 75972 | 22998 | 2481 | inactive
TwdlH | 1 | 1.30e5 | 1.12e5 | 2100 | 2925 | inactive
CG14456 | 1 | 78298 | 1.07e5 | 3075 | 2669 | inactive
I-3 | 1 | 75974 | 1.87e5 | 3521 | 8691 | inactive
wac | 1 | 1.08e5 | 39546 | 4149 | 2240 | inactive
CG10357 | 1 | 81673 | 41671 | 2615 | 3223 | inactive
CG16890 | 1 | 63145 | 81648 | 2857 | 3507 | inactive
kek6 | 1 | 85089 | 1.32e5 | 2964 | 5784 | inactive
CG15916 | 1 | 80812 | 1.59e5 | 2547 | 6610 | inactive
Fadd | 1 | 8.20e5 | 1.60e5 | 42791 | 11608 | inactive
vap | 1 | 1.02e5 | 87745 | 2379 | 1889 | inactive
Mccc2 | 1 | 75274 | 55495 | 1864 | 3346 | inactive
Cp16 | 1 | 51751 | 48073 | 5408 | 3938 | inactive
Brd7-9 | 1 | 77752 | 81954 | 4072 | 4059 | inactive
CG4884 | 1 | 85881 | 1.38e5 | 3298 | 4096 | inactive
CG8958 | 1 | 63824 | 1.48e5 | 1440 | 6641 | inactive
CG6325 | 1 | 1.07e5 | 74508 | 3968 | 2875 | inactive
PGAP5 | 1 | 91127 | 70967 | 2245 | 5520 | inactive
RpS27A | 1 | 60244 | 30906 | 2550 | 4000 | active
CAH5 | 1 | 80929 | 69466 | 3076 | 1227 | inactive
mtsh | 1 | 84739 | 43159 | 2546 | 4656 | inactive
abd-A | 1 | 37467 | 1.34e5 | 6812 | 3083 | inactive
abd-A | 2 | 23905 | 10880 | 1173 | 612 | active
CG8407 | 1 | 1.24e5 | 42822 | 2724 | 3964 | inactive
se | 1 | 51165 | 49146 | 5371 | 3066 | inactive
RpL34a | 1 | 5.08e5 | 1.41e5 | 27347 | 5075 | inactive
Rrp4 | 1 | 82265 | 55506 | 3805 | 2625 | inactive
CG10919 | 1 | 62888 | 95648 | 2338 | 2840 | inactive
CG5913 | 1 | 5.60e5 | 1.08e5 | 30352 | 2832 | inactive

Copied from the entries so far, 7 entries:
gene | reagent no. | firefly Hh reporter signal, replicate 1 | firefly Hh reporter signal, replicate 2 | Renilla reference signal, replicate 1 | Renilla reference signal, replicate 2 | Call
HisRS | 1 | 80168 | 2.52e5 | 2581 | 9892 | inactive
Atf6 | 1 | 1.77e5 | 3.51e5 | 5083 | 16823 | inactive
Atf6 | 2 | 88928 | 48909 | 1904 | 5056 | inactive
CG14561 | 1 | 1.00e5 | 1.08e5 | 3771 | 3073 | inactive
Rlb1 | 1 | 72523 | 1.11e5 | 2138 | 3163 | inactive
CG4988 | 1 | 1.18e5 | 60304 | 2960 | 3586 | inactive
mago | 1 | 1.23e5 | 81091 | 2426 | 5450 | inactive
